Data as given in paper doi:10.1101/2025.10.29.685266.

By UniProt entry, the sequences of proteins in these tests, tags left out. Where a name states a change or a piece, a line headed by the entry shows the natural chain unless it says otherwise. Chains listed by the source or under a name are the forms on record and can include a tag or linker.
GFP-TET3 (eGFP - TEV cleavage site - murine Tet3) (Q8BG87, form named): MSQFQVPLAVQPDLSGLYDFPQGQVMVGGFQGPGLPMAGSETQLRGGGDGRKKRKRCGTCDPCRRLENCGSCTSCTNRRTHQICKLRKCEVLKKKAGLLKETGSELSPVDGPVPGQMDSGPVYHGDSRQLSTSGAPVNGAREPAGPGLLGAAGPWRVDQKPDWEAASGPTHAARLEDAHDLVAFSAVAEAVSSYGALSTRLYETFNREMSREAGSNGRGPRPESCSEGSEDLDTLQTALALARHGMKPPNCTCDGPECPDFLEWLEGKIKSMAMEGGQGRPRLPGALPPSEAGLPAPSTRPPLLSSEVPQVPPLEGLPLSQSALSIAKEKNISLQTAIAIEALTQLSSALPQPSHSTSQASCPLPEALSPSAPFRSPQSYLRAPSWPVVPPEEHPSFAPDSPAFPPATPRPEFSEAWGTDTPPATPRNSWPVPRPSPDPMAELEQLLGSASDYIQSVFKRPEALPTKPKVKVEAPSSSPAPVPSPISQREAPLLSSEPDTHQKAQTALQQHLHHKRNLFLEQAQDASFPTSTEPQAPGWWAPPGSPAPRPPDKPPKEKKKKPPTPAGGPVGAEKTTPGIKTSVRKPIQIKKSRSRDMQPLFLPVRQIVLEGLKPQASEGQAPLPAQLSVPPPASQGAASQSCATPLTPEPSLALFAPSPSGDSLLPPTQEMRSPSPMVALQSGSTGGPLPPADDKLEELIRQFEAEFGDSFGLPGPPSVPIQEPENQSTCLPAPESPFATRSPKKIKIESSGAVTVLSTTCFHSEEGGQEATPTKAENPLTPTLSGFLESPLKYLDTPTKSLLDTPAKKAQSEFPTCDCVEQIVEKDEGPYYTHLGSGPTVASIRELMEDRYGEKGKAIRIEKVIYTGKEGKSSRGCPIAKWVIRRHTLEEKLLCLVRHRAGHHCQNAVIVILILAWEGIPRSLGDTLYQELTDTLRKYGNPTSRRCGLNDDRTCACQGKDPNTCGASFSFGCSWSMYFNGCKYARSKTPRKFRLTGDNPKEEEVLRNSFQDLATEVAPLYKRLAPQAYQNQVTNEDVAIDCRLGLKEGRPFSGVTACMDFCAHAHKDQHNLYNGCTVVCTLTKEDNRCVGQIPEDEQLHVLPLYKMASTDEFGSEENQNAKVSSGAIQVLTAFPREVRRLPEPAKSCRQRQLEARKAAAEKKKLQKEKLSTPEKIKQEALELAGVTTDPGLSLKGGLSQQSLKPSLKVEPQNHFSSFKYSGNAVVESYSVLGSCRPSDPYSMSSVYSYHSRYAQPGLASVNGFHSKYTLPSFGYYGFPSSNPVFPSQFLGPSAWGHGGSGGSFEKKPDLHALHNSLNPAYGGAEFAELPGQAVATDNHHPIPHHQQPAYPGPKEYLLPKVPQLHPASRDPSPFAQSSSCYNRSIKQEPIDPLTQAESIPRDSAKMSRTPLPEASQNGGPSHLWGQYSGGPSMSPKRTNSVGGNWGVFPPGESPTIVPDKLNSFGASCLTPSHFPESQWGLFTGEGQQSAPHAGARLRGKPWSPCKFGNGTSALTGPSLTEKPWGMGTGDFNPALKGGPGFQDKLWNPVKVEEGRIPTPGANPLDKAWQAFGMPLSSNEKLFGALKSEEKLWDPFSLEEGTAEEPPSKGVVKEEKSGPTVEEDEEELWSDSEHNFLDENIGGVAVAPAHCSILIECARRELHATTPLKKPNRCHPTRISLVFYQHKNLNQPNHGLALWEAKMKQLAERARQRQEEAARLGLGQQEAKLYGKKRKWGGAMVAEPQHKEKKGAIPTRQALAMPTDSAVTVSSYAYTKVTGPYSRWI
UniProt P45973: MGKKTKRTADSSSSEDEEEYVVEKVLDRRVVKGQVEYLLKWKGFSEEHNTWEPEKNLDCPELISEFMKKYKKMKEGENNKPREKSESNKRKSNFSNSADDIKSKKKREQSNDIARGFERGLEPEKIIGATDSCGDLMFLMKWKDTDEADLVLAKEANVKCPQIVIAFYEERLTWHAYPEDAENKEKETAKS
UniProt P09429: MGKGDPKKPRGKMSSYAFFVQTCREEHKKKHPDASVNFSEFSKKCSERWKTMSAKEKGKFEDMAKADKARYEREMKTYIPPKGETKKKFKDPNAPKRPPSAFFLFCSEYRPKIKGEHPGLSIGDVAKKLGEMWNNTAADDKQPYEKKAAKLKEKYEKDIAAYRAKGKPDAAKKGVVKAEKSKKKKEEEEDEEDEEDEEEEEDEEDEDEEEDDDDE
UniProt P35637: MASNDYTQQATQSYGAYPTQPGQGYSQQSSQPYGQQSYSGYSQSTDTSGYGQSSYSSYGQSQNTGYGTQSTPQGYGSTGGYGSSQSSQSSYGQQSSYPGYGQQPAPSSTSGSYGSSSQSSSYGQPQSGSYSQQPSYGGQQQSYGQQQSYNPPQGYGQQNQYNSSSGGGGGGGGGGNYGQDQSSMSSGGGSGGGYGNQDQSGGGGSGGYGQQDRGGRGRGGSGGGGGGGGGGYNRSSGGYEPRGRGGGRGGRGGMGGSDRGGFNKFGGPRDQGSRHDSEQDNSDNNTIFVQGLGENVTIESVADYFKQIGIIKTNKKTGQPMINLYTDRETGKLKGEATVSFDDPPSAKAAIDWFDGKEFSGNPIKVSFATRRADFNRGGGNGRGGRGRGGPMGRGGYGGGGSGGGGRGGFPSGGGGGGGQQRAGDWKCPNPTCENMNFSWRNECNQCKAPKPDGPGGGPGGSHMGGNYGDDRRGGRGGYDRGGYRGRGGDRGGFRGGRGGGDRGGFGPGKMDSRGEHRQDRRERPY
UniProt Q13185: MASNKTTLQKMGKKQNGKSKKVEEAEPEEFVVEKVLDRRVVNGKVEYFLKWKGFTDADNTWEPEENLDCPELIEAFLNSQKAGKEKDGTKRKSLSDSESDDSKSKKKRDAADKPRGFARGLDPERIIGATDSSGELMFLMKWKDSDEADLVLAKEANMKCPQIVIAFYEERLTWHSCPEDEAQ
UniProt Q01844: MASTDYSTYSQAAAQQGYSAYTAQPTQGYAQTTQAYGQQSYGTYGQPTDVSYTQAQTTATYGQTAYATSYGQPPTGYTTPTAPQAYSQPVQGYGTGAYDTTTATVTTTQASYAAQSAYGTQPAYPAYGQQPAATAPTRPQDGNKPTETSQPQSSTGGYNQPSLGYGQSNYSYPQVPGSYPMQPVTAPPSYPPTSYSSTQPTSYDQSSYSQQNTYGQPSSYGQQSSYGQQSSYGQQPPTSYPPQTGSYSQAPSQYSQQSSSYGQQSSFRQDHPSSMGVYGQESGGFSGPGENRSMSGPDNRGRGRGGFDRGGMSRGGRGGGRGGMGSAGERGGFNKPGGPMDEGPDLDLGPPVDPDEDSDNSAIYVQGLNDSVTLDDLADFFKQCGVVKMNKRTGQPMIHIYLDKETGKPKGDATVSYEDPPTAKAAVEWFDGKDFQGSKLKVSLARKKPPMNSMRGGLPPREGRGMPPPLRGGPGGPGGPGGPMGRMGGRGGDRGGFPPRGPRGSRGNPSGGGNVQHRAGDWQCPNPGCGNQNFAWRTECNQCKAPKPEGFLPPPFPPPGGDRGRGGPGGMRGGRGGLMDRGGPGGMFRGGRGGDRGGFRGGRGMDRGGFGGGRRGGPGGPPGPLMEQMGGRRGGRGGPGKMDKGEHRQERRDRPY
UniProt P83916: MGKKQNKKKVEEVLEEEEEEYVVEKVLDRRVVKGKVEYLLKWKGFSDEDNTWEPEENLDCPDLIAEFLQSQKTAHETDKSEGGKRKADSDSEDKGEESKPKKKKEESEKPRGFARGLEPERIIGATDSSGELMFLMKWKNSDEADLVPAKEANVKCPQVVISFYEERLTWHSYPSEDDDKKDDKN

These molecules were tested against GFP-TET3 (eGFP - TEV cleavage site - murine Tet3) (mouse) (UniProt Q8BG87) (assay: affinity purification with mass spectrometry).

Molecule | binding
chromobox protein CBX5 (from UniProt P45973 1-191) | binds
high mobility group box protein HMGB1 (from UniProt P09429 1-215) | binds
FUS (from UniProt P35637 1-526) | binds
chromobox protein CBX3 (from UniProt Q13185 1-183) | binds
EWS (from UniProt Q01844 1-656) | binds
chromobox protein CBX1 (from UniProt P83916 1-185) | binds
high mobility group box protein HMGB2 (protein, UniProt P26583 1-209) MGKGDPNKPRGKMSSYAFFVQTCREEHKKKHPDSSVNFAEFSKKCSERWKTMSAKEKSKFEDMAKSDKARYDREMKNYVPPKGDKKGKKKDPNAPKRPPSAFFLFCSEHRPKIKSEHPGLSIGDTAKKLGEMWSEQSAKDKQPYEQKAAKLKEKYEKDIAAYRAKGKSEAGKKGPGRPTGSKKKNEPEDEEEEEEEEDEDEEEEDEDEE | binds
high mobility group box protein HMGB3 (protein, UniProt O15347 1-200) MAKGDPKKPKGKMSAYAFFVQTCREEHKKKNPEVPVNFAEFSKKCSERWKTMSGKEKSKFDEMAKADKVRYDREMKDYGPAKGGKKKKDPNAPKRPPSGFFLFCSEFRPKIKSTNPGISIGDVAKKLGEMWNNLNDSEKQPYITKAAKLKEKYEKDVADYKSKGKFDGAKGPAKVARKKVEEEDEEEEEEEEEEEEEEDE | binds

Results are given in words; binding and its absence hold for the method and conditions named. In cells and extracts the contact can be indirect. Here binding means that the protein was enriched with, or labelled near, the bait; the list need not be complete.
